Test results: PubChem BioAssay AID540275 (National Center for Advancing Translational Sciences (NCATS), 2011)
The whole screen tested about 320,000 compounds, of which about 620 (0.19%) were called active. The inconclusive results got no clear call from the source; some entries with a clear call stand among them for comparison. Rule as the data show it: active = activation above about 80%; inconclusive = between about 30% and that limit; inactive = weaker than that.

Sequences of proteins named here, by UniProt entry; tags and fusion partners are left off.
UniProt Q8NER1, whole entry, looked up: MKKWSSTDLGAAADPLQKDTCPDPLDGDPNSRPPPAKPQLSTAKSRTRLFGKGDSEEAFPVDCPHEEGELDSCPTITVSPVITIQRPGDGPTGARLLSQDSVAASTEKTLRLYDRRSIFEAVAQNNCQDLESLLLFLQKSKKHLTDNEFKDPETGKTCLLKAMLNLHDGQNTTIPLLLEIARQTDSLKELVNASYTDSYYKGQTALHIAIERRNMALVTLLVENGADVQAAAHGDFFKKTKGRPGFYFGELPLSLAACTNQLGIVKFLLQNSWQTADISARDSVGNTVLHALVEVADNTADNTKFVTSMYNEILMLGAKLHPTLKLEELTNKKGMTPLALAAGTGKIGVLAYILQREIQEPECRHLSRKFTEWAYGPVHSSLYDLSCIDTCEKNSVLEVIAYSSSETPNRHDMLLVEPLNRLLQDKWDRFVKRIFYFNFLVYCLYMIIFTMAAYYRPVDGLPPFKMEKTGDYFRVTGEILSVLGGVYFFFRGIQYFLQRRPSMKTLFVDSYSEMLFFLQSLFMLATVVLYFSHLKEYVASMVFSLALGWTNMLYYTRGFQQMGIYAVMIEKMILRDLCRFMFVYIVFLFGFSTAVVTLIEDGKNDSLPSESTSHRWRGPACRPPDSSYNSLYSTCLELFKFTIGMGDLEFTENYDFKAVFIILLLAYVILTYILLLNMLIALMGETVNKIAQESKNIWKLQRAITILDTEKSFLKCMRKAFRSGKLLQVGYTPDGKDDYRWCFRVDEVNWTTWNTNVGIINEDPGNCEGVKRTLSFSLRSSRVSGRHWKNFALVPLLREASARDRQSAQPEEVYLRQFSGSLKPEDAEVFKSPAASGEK

biological target: Transient receptor potential cation channel subfamily V member 1 (Homo sapiens) (UniProt Q8NER1); test: HTS Assay for Compounds that Act as Agonists of the Vanilloid Receptor 1; conditions: TRPV1-expressing cells, Fluo-8 calcium influx, agonist mode; at 8.33 µM, hits give high values; also: 0% is about no effect
Method in brief: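 TRPV1-expressing cells were cultured overnight at 35.5C and loaded with Fluo-8 calcium dye for 40 to 90 min at room temperature. After a 10 s baseline, compound was added and calcium influx was read kinetically for 3 min (ex 480/em 520 nm).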

Row | Structure (SMILES) | activation
1 | O=C(Nc1cccc(Cl)c1)N1CCC(CO)(CCOc2ccccc2)CC1 | inconclusive: 30.9%
2 | CCC(C)Sc1ccc([C@H]2N[C@@](CC(C)C)(C(=O)OC)[C@H]3C(=O)N(CC)C(=O)[C@@H]23)cc1 (stereo partly specified) | active: 86.6%
3 | Cc1ccc(NC(=O)c2ccc3c(c2)CCN3S(C)(=O)=O)c(C)c1 | inconclusive: 67.1%
4 | O=C(NC1CC1)c1ccc2c(Cl)c3c(nc2c1)CCCC3 | inconclusive: 37.5%
5 | CCCCCn1c(Sc2ccccc2)nc2c1c(=O)[nH]c(=O)n2C | inconclusive: 41.3%
6 | CCOc1ccc(C)cc1S(=O)(=O)NC1CCCCCC1 | inconclusive: 32.3%
7 | CCOC(=O)[C@H]1[C@H]2COc3ccc(C)cc3[C@@H]2N2C(=O)CN(Cc3ccc(OC)cc3)C(=O)[C@@]12C | inconclusive: 44.9%
8 | CC(C)n1c(CN(C)Cc2ccccc2)nc2c1c(=O)n(C)c(=O)n2C | inactive: -0.125%
9 | Cn1cc(CNC(=O)/C=C/c2ccc(Cl)cc2)cn1 | inconclusive: 35.7%
10 | Cc1c(Cl)cccc1N1C(=O)c2ccccc2C1=O | inactive: 4.68%
11 | CC(=O)c1ccc(NC(=O)N2CCc3ccccc3C2)cc1 | inconclusive: 56.9%
12 | Fc1ccc(-c2cc(-c3ccccc3)nc(-n3cccn3)n2)cc1 | inconclusive: 76.9%
13 | O=C(Nc1cccnc1)c1sc2cccc(F)c2c1Cl | inconclusive: 48.1%
14 | Cc1ccccc1C=Nc1ccccc1C(N)=O | inactive: -2.19%
15 | CN(CC(=O)Nc1ccc(F)cc1)C(=O)c1ccc(-c2ccc(Cl)cc2)o1 | inconclusive: 31.9%
16 | COC(=O)C(C)n1cnc2c(nnn2-c2cccc(OC)c2)c1=O (stereo unspecified) | inactive: -1.43%
17 | Cc1ccc(CNC(=O)Cc2ccc(Br)cc2)cc1 | inconclusive: 33%
18 | COc1ccc(/C=C2/N=C3CCCCCN3C2=O)cc1 | inconclusive: 39.6%
19 | CCCc1cnc(N2CCN(C(=O)c3ccc(F)cc3)CC2)nc1 | inconclusive: 42.2%
20 | CCOc1ccccc1N=Cc1c(O)c2ccccc2oc1=O | inconclusive: 32.9%
21 | Cn1c(=O)c(C(=O)COc2ccc(F)cc2Cl)c(N)n(Cc2ccccc2)c1=O | inactive: 4.65%
22 | Cc1cc(C)cc(Nc2nc3ccc(C)cc3n3cnnc23)c1 | inconclusive: 30.6%
23 | O=C(CSc1nnc(-c2ccccc2)o1)N1CCCCC1 | inconclusive: 56.5%

Row | Structure (SMILES) | activation
24 | O=C(COC(=O)c1cccc2c1C(=O)c1ccccc1C2=O)NC1CCCCC1 | inactive: 19.3%
25 | CN(C)c1nc(OCCNC(=O)Nc2ccccc2)nc(N(C)C)n1 | inconclusive: 35.5%
26 | CCC(=O)Nc1cccc(C(=O)/C=C/c2cc(Br)ccc2OC)c1 | inactive: 1.79%
27 | Cc1c(C(=O)Nc2ccccc2F)cnn1-c1ccccc1 | inconclusive: 38.2%
28 | CC(C)c1ccc(OCC(=O)Nc2ccc3oc(=O)ccc3c2)cc1 | inconclusive: 58%
29 | COc1ccccc1N(C)S(=O)(=O)c1ccc(C(=O)NC2CCCCCC2)cc1 | inconclusive: 60.2%
30 | Cc1nn2c(-c3cccnc3)ccnc2c1-c1ccccc1 | inactive: 1.23%
31 | COC(=O)CSc1nnc(CNC(=O)c2ccc(OC)c(OC)c2)n1C | inactive: -2.93%
32 | O=C(Nc1ccc(F)cc1)N1CCc2ccccc2C1 | inconclusive: 60.9%
33 | O=C(CSc1nc2ccccc2[nH]1)NC1CCCC1 | inconclusive: 40.7%
34 | C/C(CC(=O)NC1CCCCC1)=N\NC(=O)c1ccccn1 | inconclusive: 35.2%
35 | CCN(CC)C(=O)c1[nH]cnc1C(=O)N[C@@H](CC(C)C)C(=O)OCc1ccccc1 | inconclusive: 37.6%
36 | O=[N+]([O-])c1ccc(NC(=S)NCc2ccc(F)cc2)cc1 | inconclusive: 69.2%
37 | O=C(c1cc(COc2c(F)cccc2F)on1)N1C[C@H]2CC[C@H]1C2 | inconclusive: 40.2%
38 | COc1ccc(CCn2c(=N)c(C(=O)NCc3ccco3)cc3c(=O)n4cccc(C)c4nc32)cc1 | inconclusive: 44.3%
39 | NS(=O)(=O)c1cnccc1Nc1ccc(Cl)c(Cl)c1 | inconclusive: 52%
40 | CC(=O)N1N=C(c2ccncc2)OC12CCCC2 | inactive: -1.37%
41 | Cc1ccc2nc(-c3ccccc3)cc(C(=O)N3CCc4ccccc4C3)c2c1 | inconclusive: 32.2%
42 | COc1ccc(C=C(c2ccc(OC)cc2)c2ccc(OC)cc2)cc1 | inactive: -2.52%
43 | Cc1ccc(NC(=O)N2CCc3ccccc3C2)cc1 | inconclusive: 52.6%
44 | Cc1cc(C)c(S(=O)(=O)c2c(C)cccc2C)c(OCC(C)C)n1 | inconclusive: 66.3%
45 | CCOC(=O)C1(CCOc2ccccc2)CCN(Cc2cnc(SC)nc2)CC1 | inactive: 4.78%
46 | Cc1ccc(-c2csc3nc4ccc(C(=O)NCCO)cc4c(=O)n23)cc1 | inconclusive: 49%

Row | Structure (SMILES) | activation
47 | O=C(CCc1nc2ccccc2c(=O)[nH]1)Nc1ccc(N2CCCCC2)cc1 | inactive: -0.716%
48 | CC(C)Cn1c(CCCNC(=O)c2ccc(F)cc2)nc2ccccc21 | inconclusive: 40.9%
49 | Fc1cccc(F)c1/C=C/c1ccc2ccccc2n1 | inactive: 16.5%
50 | Cc1c(Cl)cccc1NC(=S)N1CCN(Cc2ccccc2)CC1 | inconclusive: 47.5%
51 | COc1ccccc1Nc1nc(N)nc(-c2oc3ccccc3c2C)n1 | inactive: 2.15%
52 | Cc1cc(C)c2cc(CN(Cc3ccco3)C(=S)NCC3CCCO3)c(=O)[nH]c2c1 (stereo unspecified) | inconclusive: 31.7%
53 | O=C(CCCC(=O)OCC(=O)c1ccc(F)cc1)Nc1cc(C(F)(F)F)ccc1Cl | inconclusive: 36.2%
54 | COc1ccccc1Oc1ccc(N/C=C/C(=O)c2ccco2)cc1 | inconclusive: 30.8%
55 | COCCn1c(SCC(=O)N2CCC(C)CC2)nc2c([nH]c3ccccc32)c1=O | inconclusive: 40.1%
56 | CC(C)(C)c1ccc(C(=O)Nc2ccc(NC(=O)c3ccco3)cc2)cc1 | inconclusive: 34.4%
57 | COc1c(C)cc(C(=O)C2CCCN(C(=O)CCc3scnc3C)C2)cc1C (stereo unspecified) | inconclusive: 70.1%
58 | CN(C)c1ccc(NC(=O)c2ccc([N+](=O)[O-])cc2Cl)cc1 | inconclusive: 59.2%
59 | COc1ccc(OCc2cc(C(=O)N3CCOCC3)no2)c(Cl)c1 | inconclusive: 35.5%
60 | CCN(CC)c1ccc(NC(=O)c2ccc(Cl)nc2)cc1 | active: 82%
61 | O=C(CCc1ccccc1)Nc1cccc([N+](=O)[O-])c1 | inconclusive: 68.6%
62 | COc1ccc(-c2noc(N3CCC(C(=O)Nc4ccc(F)cc4)CC3)n2)cc1 | inconclusive: 50.5%
63 | CC1=NN(C(=O)c2ccccc2C)C(O)(c2ccc(Cl)cc2)C1 (stereo unspecified) | inactive: 0.913%
64 | CCC(C)NC(=O)c1ccc(COc2ccccc2Cl)cc1 (stereo unspecified) | inconclusive: 31%
65 | N#C/C(=C\c1ccc(N2CCOCC2)c([N+](=O)[O-])c1)c1nc2ccccc2[nH]1 | inactive: 24%
66 | Cc1ccc(O)c(CNc2nc3ccccc3n2C)c1 | inactive: 1.21%
67 | C/C(=N\OC(=O)NC1CCCCC1)c1sc(-c2ccccc2)nc1C | inconclusive: 35.3%
68 | COc1ccccc1OCC(=O)N/N=C/C=C/c1ccc([N+](=O)[O-])o1 | inactive: 3.85%
69 | FC(F)Sc1ccc(NC(=S)NC2CCCCC2)cc1 | inconclusive: 37.3%

Structural class: the entries above containing a nitro group on carbon (five)
Row | Structure (SMILES) | activation
36 | O=[N+]([O-])c1ccc(NC(=S)NCc2ccc(F)cc2)cc1 | inconclusive: 69.2%
58 | CN(C)c1ccc(NC(=O)c2ccc([N+](=O)[O-])cc2Cl)cc1 | inconclusive: 59.2%
61 | O=C(CCc1ccccc1)Nc1cccc([N+](=O)[O-])c1 | inconclusive: 68.6%
65 | N#C/C(=C\c1ccc(N2CCOCC2)c([N+](=O)[O-])c1)c1nc2ccccc2[nH]1 | inactive: 24%
68 | COc1ccccc1OCC(=O)N/N=C/C=C/c1ccc([N+](=O)[O-])o1 | inactive: 3.85%

Next part.

Row | Structure (SMILES) | activation
70 | C/C(=N\NC(=S)NC1CCCCC1)c1c(F)cccc1F | inconclusive: 50.7%
71 | O=C(Nc1ccccc1)Nc1cc([N+](=O)[O-])ccc1F | inconclusive: 30.4%
72 | Cc1nc2ccccn2c1/C(O)=C1\C(=O)C(=O)N(CCCn2ccnc2)C1c1ccncc1 (stereo unspecified) | inactive: 1.28%
73 | Cc1ccc(CNc2c(C=O)c(=O)[nH]c3ccccc23)cc1 | inconclusive: 33.9%
74 | Cc1cnc(NC(=O)c2ccc3c(c2)C(=O)N(Cc2cccnc2)C3=O)s1 | inconclusive: 32.3%
75 | Cc1ccc(S(=O)(=O)N(C)c2ccc(C(=O)Nc3cccnc3)cc2)cc1 | inconclusive: 65.3%
76 | O=C(CN1C(=O)c2ccccc2S1(=O)=O)NC1CC2CCC1C2 (stereo unspecified) | inactive: -0.0631%
77 | O=C(NCCc1ccc(Cl)cc1)c1ccc(=O)[nH]c1 | inactive: -0.994%
78 | Cc1noc(C)c1COc1ccccc1C(=O)NC1CCC(C)CC1 (stereo unspecified) | inconclusive: 67.9%
79 | Clc1ccccc1-c1nc(N/N=C/c2cccnc2)c2ccccc2n1 | inconclusive: 72.5%
80 | Cc1ccccc1CN1C(=O)C(C)S/C1=N/N=C/c1ccco1 (stereo unspecified) | inconclusive: 40.4%
81 | CCOC(=O)N1CCN(C(=O)c2cnn3c(C(F)(F)F)cc(-c4cccs4)nc23)CC1 | inactive: 0.0435%
82 | O=S(=O)(c1ccc(C(F)(F)F)cc1)N1CCCN(c2ccc(C(F)(F)F)cn2)CC1 | inconclusive: 48.4%
83 | Cc1ccc(NC(NC(=O)c2cccs2)C(Cl)(Cl)Cl)cc1C (stereo unspecified) | inconclusive: 46.7%
84 | COc1ccc(Cc2noc(CN(C)CC3(N4CCOCC4)CCCCC3)n2)cc1OC | inconclusive: 48.2%
85 | O=C(COc1ccc(S(=O)(=O)N2CCCCC2)cc1)N1CCCCCC1 | inactive: 20.2%
86 | O=C(Nc1cccc(F)c1)NC1CCCCC1 | inconclusive: 74.7%
87 | Cc1ccc(NC(=O)CSc2n[nH]c(N)n2)cc1S(=O)(=O)N1CCOCC1 | inactive: 3.95%
88 | Cc1ccc(NC(=S)c2nc3ccccc3s2)cc1 | inconclusive: 32.8%
89 | CC(=O)Nc1sc2c(c1C(c1ccc(F)cc1)N1CCOCC1)CCCC2 (stereo unspecified) | inconclusive: 34.8%
90 | CCN(CC)S(=O)(=O)c1ccc2oc(C(=O)N3CCc4ccccc4C3)c(C)c2c1 | inconclusive: 39.8%
91 | Cc1nc(CC(C)C)cc(C(=O)N2CCCC(Nc3ccc(C)c(C)c3)C2)n1 (stereo unspecified) | inconclusive: 41.9%
